Results deposited as PubChem BioAssay AID1259286 (Sanger Institute, 2017)
This is one part, drawn at random, of 794 reagents. Over the whole deposit, 17 (2.1%) were called active. 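Calls use knock-down alone only; synergy above 0.15 marked separately; viability seems capped at control level; exposure time not given.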 Not all columns of the deposit are shown. Not stated in the record: the amount of reagent, the time to read-out.

Purpose: 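Kinases whose loss adds to targeted drug killing of colorectal cancer cells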 (primary screen)
Cells: NCI-H630 human colorectal cancer cells
Knock-down reagent: siRNA pool against human genes
Conditions: anchor drugs BYL719 at 1 µM, cetuximab at 5 µg/ml or trametinib at 10 nM, or DMSO vehicle alone; exposure time not given
Detection: 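Viability relative to non-targeting pool wells, averaged over replicates, with robust z-score for knock-down alone and a synergy score for each anchor drug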
Reading the numbers: viability z-score, knock-down alone: higher = more viable cells, weaker knock-down effect; viability vs control, knock-down alone: higher = more viable cells; synergy score with trametinib: higher = stronger synergistic killing with trametinib
Active means: 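a gene is called essential when its knock-down-alone viability robust z-score is below -3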
Meaning of the calls: active = essential when knocked down alone; inactive = not essential alone

The opening 2 entries, to show the layout:
| Target gene | PubChem SID | viability z-score, knock-down alone | viability vs control, knock-down alone (fraction of control) | synergy score with trametinib | Call |
| --- | --- | --- | --- | --- | --- |
| NADK | SID152150245 | 0.464 | 1 | -0.0479 | inactive |
| ADCK1 | SID135620966 | 0.464 | 1 | -0.0479 | inactive |

Main list, from the start:
| Target gene | PubChem SID | viability z-score, knock-down alone | viability vs control, knock-down alone (fraction of control) | synergy score with trametinib | Call |
| --- | --- | --- | --- | --- | --- |
| NADK | SID152150245 | 0.464 | 1 | -0.0479 | inactive |
| ADCK1 | SID135620966 | 0.464 | 1 | -0.0479 | inactive |
| NAGK | SID135621243 | -1.2 | 0.937 | -0.108 | inactive |
| PMVK | SID135621255 | 0.464 | 1 | -0.0479 | inactive |
| CDKL2 | SID152156267 | -0.0954 | 0.979 | -0.0268 | inactive |
| PRP4K | SID152152780 | 0.179 | 0.989 | -0.00987 | inactive |
| GUCY2F | SID152150427 | 0.464 | 1 | -0.0479 | inactive |
| AK2 | SID56479162 | 0.464 | 1 | -0.0479 | inactive |
| GATA3 | SID134310077 | 0.464 | 1 | -0.0351 | inactive |
| RIOK1 | SID56479042 | 0.464 | 1 | -0.0479 | inactive |
| TESK2 | SID135620925 | 0.464 | 1 | -0.0479 | inactive |
| DLG1 | SID152148481 | 0.464 | 1 | -0.0479 | inactive |
| FRK | SID56478519 | 0.464 | 1 | -0.0479 | inactive |
| POMK | SID56479008 | 0.115 | 0.987 | -0.0604 | inactive |
| CERK | SID152152071 | 0.464 | 1 | -0.0296 | inactive |
| PRKAG3 | SID56479232 | -4.15 | 0.826 | -0.0471 | active |
| MAP3K10 | SID56478692 | 0.464 | 1 | -0.0479 | inactive |
| CHEK2 | SID152153325 | 0.464 | 1 | -0.033 | inactive |
| MAST1 | SID135620865 | 0.464 | 1 | -0.0479 | inactive |
| PSTK | SID134320501 | 0.191 | 0.99 | -0.0577 | inactive |
